# The supplement of paper PMC8728848
# The other results are listed elsewhere or left out.
# Tests used:
# Assay in all cases: glycan array binding signal (z-score within array); higher = stronger binding
# Conditions in all cases: glycan notation: IUPAC condensed, linker removed
# [1] = target: Gal(b1-4)GlcNAc(b1-3)Gal(b1-4)GlcNAc(b1-3)Gal(b1-4)GlcNAc(b1-3)Gal(b1-4)GlcNAc(b1-2)Man(a1-3)[Gal(b1-4)GlcNAc(b1-3)Gal(b1-4)GlcNAc(b1-3)Gal(b1-4)GlcNAc(b1-3)Gal(b1-4)GlcNAc(b1-2)Man(a1-6)]Man(b1-4)GlcNAc(b1-4)[Fuc(a1-6)]GlcNAc
# Method in brief: (§1)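 The binding signal is a Z-score computed within each array and averaged over linkers. Arrays of the same protein sequence at different concentrations or buffers were also averaged together. Data originate from 3228 arrays in the Consortium for Functional Glycomics database, kept only where the protein sequence was available.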
# [2] = target: Gal(b1-4)GlcNAc(b1-3)Gal(b1-4)GlcNAc(b1-3)Gal(b1-4)GlcNAc(b1-3)Gal(b1-4)GlcNAc(b1-2)[Gal(b1-4)GlcNAc(b1-3)Gal(b1-4)GlcNAc(b1-3)Gal(b1-4)GlcNAc(b1-3)Gal(b1-4)GlcNAc(b1-6)]Man(a1-6)[Gal(b1-4)GlcNAc(b1-3)Gal(b1-4)GlcNAc(b1-3)Gal(b1-4)GlcNAc(b1-3)Gal(b1-4)GlcNAc(b1-2)Man(a1-3)]Man(b1-4)GlcNAc(b1-4)[Fuc(a1-6)]GlcNAc
# Method in brief: as §1
# [3] = target: Gal(b1-4)GlcNAc(b1-3)Gal(b1-4)GlcNAc(b1-3)Gal(b1-4)GlcNAc(b1-3)Gal(b1-4)GlcNAc(b1-3)Gal(b1-4)GlcNAc(b1-2)Man(a1-3)[Gal(b1-4)GlcNAc(b1-3)Gal(b1-4)GlcNAc(b1-3)Gal(b1-4)GlcNAc(b1-3)Gal(b1-4)GlcNAc(b1-3)Gal(b1-4)GlcNAc(b1-2)Man(a1-6)]Man(b1-4)GlcNAc(b1-4)GlcNAc
# Method in brief: as §1
# [4] = target: Gal(b1-4)GlcNAc(b1-3)Gal(b1-4)GlcNAc(b1-3)Gal(b1-4)GlcNAc(b1-3)Gal(b1-4)GlcNAc(b1-3)Gal(b1-4)GlcNAc(b1-2)Man(a1-3)[Gal(b1-4)GlcNAc(b1-3)Gal(b1-4)GlcNAc(b1-3)Gal(b1-4)GlcNAc(b1-3)Gal(b1-4)GlcNAc(b1-3)Gal(b1-4)GlcNAc(b1-2)Man(a1-6)]Man(b1-4)GlcNAc(b1-4)[Fuc(a1-6)]GlcNAc
# Method in brief: as §1
# [5] = target: Gal(b1-4)GlcNAc(b1-3)Gal(b1-4)GlcNAc(b1-3)Gal(b1-4)GlcNAc(b1-3)Gal(b1-4)GlcNAc(b1-3)Gal(b1-4)GlcNAc(b1-2)[Gal(b1-4)GlcNAc(b1-3)Gal(b1-4)GlcNAc(b1-3)Gal(b1-4)GlcNAc(b1-3)Gal(b1-4)GlcNAc(b1-3)Gal(b1-4)GlcNAc(b1-6)]Man(a1-6)[Gal(b1-4)GlcNAc(b1-3)Gal(b1-4)GlcNAc(b1-3)Gal(b1-4)GlcNAc(b1-3)Gal(b1-4)GlcNAc(b1-3)Gal(b1-4)GlcNAc(b1-2)Man(a1-3)]Man(b1-4)GlcNAc(b1-4)[Fuc(a1-6)]GlcNAc
# Method in brief: as §1
# [6] = target: Gal(b1-4)GlcNAc(b1-3)Gal(b1-4)GlcNAc(b1-3)Gal(b1-4)GlcNAc(b1-3)Gal(b1-4)GlcNAc(b1-3)Gal(b1-4)GlcNAc(b1-3)Gal(b1-4)GlcNAc(b1-2)Man(a1-3)[Gal(b1-4)GlcNAc(b1-3)Gal(b1-4)GlcNAc(b1-3)Gal(b1-4)GlcNAc(b1-3)Gal(b1-4)GlcNAc(b1-3)Gal(b1-4)GlcNAc(b1-3)Gal(b1-4)GlcNAc(b1-2)Man(a1-6)]Man(b1-4)GlcNAc(b1-4)GlcNAc
# Method in brief: as §1
# [7] = target: Gal(b1-4)GlcNAc(b1-3)Gal(b1-4)GlcNAc(b1-3)GalNAc
# Method in brief: as §1
# [8] = target: Gal(b1-4)GlcNAc(b1-3)Gal(b1-4)GlcNAc(b1-3)[Gal(b1-4)GlcNAc(b1-3)Gal(b1-4)GlcNAc(b1-6)]GalNAc
# Method in brief: as §1
# [9] = target: Gal(b1-4)GlcNAc(b1-3)Gal(b1-4)GlcNAc(b1-6)[Gal(b1-3)]GalNAc
# Method in brief: as §1
# [10] = target: Gal(b1-4)GlcNAc(b1-3)Gal(b1-4)[Fuc(a1-3)]GlcNAc(b1-3)Gal(b1-4)[Fuc(a1-3)]GlcNAc
# Method in brief: as §1
# [11] = target: Gal(b1-4)GlcNAc(b1-3)GalNAc
# Method in brief: as §1
# [12] = target: Gal(b1-4)GlcNAc(b1-3)[Fuc(a1-3)GlcNAc(b1-6)]Gal(b1-4)Glc
# Method in brief: as §1
# [13] = target: Gal(b1-4)GlcNAc(b1-3)[Gal(b1-4)GlcNAc(b1-6)]Gal(b1-4)GlcNAc
# Method in brief: as §1
# [14] = target: Gal(b1-4)GlcNAc(b1-3)[GlcNAc(b1-6)]Gal(b1-4)GlcNAc
# Method in brief: as §1
# [15] = target: Gal(b1-4)GlcNAc(b1-6)Gal(b1-4)GlcNAc
# Method in brief: as §1
# [16] = target: Gal(b1-4)GlcNAc(b1-6)GalNAc
# Method in brief: as §1
# [17] = target: Gal(b1-4)GlcNAc(b1-6)[Gal(b1-3)]GalNAc
# Method in brief: as §1
# [18] = target: Gal(b1-4)GlcNAc(b1-6)[Gal(b1-4)GlcNAc(b1-3)]GalNAc
# Method in brief: as §1
# [19] = target: Gal(b1-4)GlcNAc6P
# Method in brief: as §1
# [20] = target: Gal(b1-6)Gal
# Method in brief: as §1
# [21] = target: Gal3S(b1-3)GalNAc
# Method in brief: as §1
# [22] = target: Gal3S(b1-3)GlcNAc
# Method in brief: as §1
# [23] = target: Gal3S(b1-3)[Fuc(a1-4)]GlcNAc
# Method in brief: as §1
# [24] = target: Gal3S(b1-4)Glc
# Method in brief: as §1
# [25] = target: Gal3S(b1-4)Glc6S
# Method in brief: as §1
# [26] = target: Gal3S(b1-4)GlcNAc
# Method in brief: as §1
# [27] = target: Gal3S(b1-4)[Fuc(a1-3)]Glc6S
# Method in brief: as §1
# [28] = target: Gal3S(b1-4)[Fuc(a1-3)]GlcNAc
# Method in brief: as §1
# [29] = target: Gal3S(b1-4)[Fuc(a1-3)]GlcNAc6S
# Method in brief: as §1
# [30] = target: Gal3S4S(b1-4)GlcNAc
# Method in brief: as §1
# [31] = target: Gal3S6S(b1-4)GlcNAc
# Method in brief: as §1
# [32] = target: Gal3S6S(b1-4)GlcNAc6S
# Method in brief: as §1
# [33] = target: Gal4S(b1-4)GlcNAc
# Method in brief: as §1
# [34] = target: Gal4S6S(b1-4)GlcNAc
# Method in brief: as §1
# [35] = target: Gal6P(b1-4)GlcNAc
# Method in brief: as §1
# [36] = target: Gal6S(b1-3)GlcNAc
# Method in brief: as §1
# [37] = target: Gal6S(b1-3)GlcNAc6S
# Method in brief: as §1
# [38] = target: Gal6S(b1-4)Glc
# Method in brief: as §1
binder,measurement,setting,value
PX14343E-bfa-545-24-545 (Bacteroides fragilis) (protein) LDRYPQEELSDGSFWKTPDDANKVVSDLYGYLSTWDQDNDINSDNATMGIKWAAGNVSKGIYDPADQGWSGDYANVRQCNLILSKIDEIPDYPEADKTKALGQVYFFRAYIYFNLIRSFGDVPYIDKPLDLKDMEGITRMPRAEVYEKIMADFDKAIAALPTEWGASDYGRVTKGAAMAMKARAALYYGNWDTAATEAKNVMDLGLYELYDKDNTGKYAELFWEKADGCDEFILVTQFNYPDKTHYLMGWECFPTKGWGGMNPTQSLVDAFEDSEGAPISKSKIYDPTDPFKNRDPRLEVDILHDGEEMYGVTIKVAPLASSGSTGINQHNDATETGYYGQKWLDPSLDPLSDGWNMGKDWVHIRYAEVLLTYAEAKNELQGLDPEAFDAVNQVRRRVGMPELQNTDPSKPTYCATQDDLRQRIRNEWRVEFCLEGGKRMWDIRRWGIAKDVLNAPFEGLKYKIVDNPNDPDKKVDGGKMCILYQGDPIILSGSRYSDNNYLFPVPQSEIDLNPALTQNPGY,glycan array binding signal (z-score),[1],2.87
same,glycan array binding signal (z-score),[2],0.131
same,glycan array binding signal (z-score),[3],1.45
same,glycan array binding signal (z-score),[4],0.44
same,glycan array binding signal (z-score),[5],1.06
same,glycan array binding signal (z-score),[6],0.756
same,glycan array binding signal (z-score),[7],0.538
same,glycan array binding signal (z-score),[8],2.88
same,glycan array binding signal (z-score),[9],0.478
same,glycan array binding signal (z-score),[10],-0.643
same,glycan array binding signal (z-score),[11],0.083
same,glycan array binding signal (z-score),[12],-0.275
same,glycan array binding signal (z-score),[13],0.572
same,glycan array binding signal (z-score),[14],0.232
same,glycan array binding signal (z-score),[15],0.326
same,glycan array binding signal (z-score),[16],0.811
same,glycan array binding signal (z-score),[17],-0.207
same,glycan array binding signal (z-score),[18],-0.034
same,glycan array binding signal (z-score),[19],-0.642
same,glycan array binding signal (z-score),[20],-0.212
same,glycan array binding signal (z-score),[21],-0.221
same,glycan array binding signal (z-score),[22],0.401
same,glycan array binding signal (z-score),[23],0.094
same,glycan array binding signal (z-score),[24],1.41
same,glycan array binding signal (z-score),[25],0.818
same,glycan array binding signal (z-score),[26],-0.61
same,glycan array binding signal (z-score),[27],-0.378
same,glycan array binding signal (z-score),[28],-0.064
same,glycan array binding signal (z-score),[29],0.523
same,glycan array binding signal (z-score),[30],0.63
same,glycan array binding signal (z-score),[31],1.24
same,glycan array binding signal (z-score),[32],-0.92
same,glycan array binding signal (z-score),[33],0.127
same,glycan array binding signal (z-score),[34],0.122
same,glycan array binding signal (z-score),[35],1.49
same,glycan array binding signal (z-score),[36],0.427
same,glycan array binding signal (z-score),[37],1.13
same,glycan array binding signal (z-score),[38],-0.737

# A second format for some results above.
binder	measurement	setting	value
PX14343E-bfa-545-24-545 (Bacteroides fragilis) (protein) LDRYPQEELSDGSFWKTPDDANKVVSDLYGYLSTWDQDNDINSDNATMGIKWAAGNVSKGIYDPADQGWSGDYANVRQCNLILSKIDEIPDYPEADKTKALGQVYFFRAYIYFNLIRSFGDVPYIDKPLDLKDMEGITRMPRAEVYEKIMADFDKAIAALPTEWGASDYGRVTKGAAMAMKARAALYYGNWDTAATEAKNVMDLGLYELYDKDNTGKYAELFWEKADGCDEFILVTQFNYPDKTHYLMGWECFPTKGWGGMNPTQSLVDAFEDSEGAPISKSKIYDPTDPFKNRDPRLEVDILHDGEEMYGVTIKVAPLASSGSTGINQHNDATETGYYGQKWLDPSLDPLSDGWNMGKDWVHIRYAEVLLTYAEAKNELQGLDPEAFDAVNQVRRRVGMPELQNTDPSKPTYCATQDDLRQRIRNEWRVEFCLEGGKRMWDIRRWGIAKDVLNAPFEGLKYKIVDNPNDPDKKVDGGKMCILYQGDPIILSGSRYSDNNYLFPVPQSEIDLNPALTQNPGY	glycan array binding signal (z-score)	[2]	0.131
same	glycan array binding signal (z-score)	[10]	-0.643
